# Source: patent US20140030218
# Sequences of proteins named here, by UniProt entry; tags and fusion partners are left off. Residues count along the entry.
# UniProt Q13568, 1-131: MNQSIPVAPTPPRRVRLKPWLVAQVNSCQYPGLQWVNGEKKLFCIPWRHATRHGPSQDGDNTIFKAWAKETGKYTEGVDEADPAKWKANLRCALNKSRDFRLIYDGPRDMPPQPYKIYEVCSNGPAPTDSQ
# For at least one entry, the source does not settle the construct or the ends of the probe. A negative result means that nothing was seen under these conditions.
# Molecular target: IRF5 DBD (aa 1-131) (Homo sapiens) (UniProt Q13568)
# Test: EMSA
# Details: 50 ng IRF5 DBD, purified recombinant protein, protein details: expressed from pET21d in bacteria, label: 32P (dCTP fill-in)
Sequence,binding result (ISRE 1/2 said to interact in vitro),binding result
AGCTCCGGGTCAGAATGAAAGAAGAAGG / AGCTCCTTCTTCTTTCATTCTGACCCGGT [TNF ISRE2],binds,–
AGCTGGGCATGGGAATTTCCAACTCT / AGCTGAGTTGGAAATTCCCATGCCC [TNF kB4],–,no binding
